Laboratory results: PubChem BioAssay AID1259254 (NCATS, 2017)

Test: 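Gene knock-downs that lead to re-replication, shown by excess G2 DNA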 (primary screen)
System: human HCT116 colorectal cancer cells
Knock-down reagent: single siRNA against human genes
Timing: 3 days
Read-out: 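Nuclei stained with Hoechst and imaged; cell-cycle phase assigned by DNA content; G2 share scaled per plate, non-targeting siRNA 0%, GMNN siRNA 100%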
Reading the numbers: G2 robust z-score: higher = more G2 cells, more excess DNA replication
Call rule: 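Active siRNAs have a G2 robust z of 5 or more median absolute deviations over the median, which in these data means about 38% or higher of GMNN control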
Here is an unselected part of about 59,000 deposited reagents. About 1,550 of them (2.6%) were called active. 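G2 share is only a proxy for re-replication; each gene was hit by three separate siRNAs, and active genes were retested.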 The numbers tell different reagents against one gene apart. Further read-outs or replicates are left out here. The record does not give: the amount of reagent.

G2 robust z-score, by target gene and reagent
PCDHGA12 (protocadherin gamma subfamily A, 12): #1 3.6 inactive; #2 -1.02 inactive; #3 -0.215 inactive
IFI27 (interferon alpha inducible protein 27): #1 0.414 inactive; #2 2.92 inactive; #3 -0.811 inactive
RAD52 (RAD52 DNA repair protein): #1 0.239 inactive; #2 -0.261 inactive; #3 0.0947 inactive
MCOLN3 (mucolipin TRP cation channel 3): #1 0.699 inactive; #2 2.34 inactive; #3 4.44 inactive
SERPING1 (serpin family G member 1): #1 -0.42 inactive; #2 -0.115 inactive; #3 0.321 inactive
ZNF219 (zinc finger protein 219): #1 -0.168 inactive; #2 1.72 inactive; #3 -0.711 inactive
MCAM (melanoma cell adhesion molecule): #1 1.8 inactive; #2 -1.49 inactive; #3 0.189 inactive
SRY (sex determining region Y): #1 -0.846 inactive; #2 -0.439 inactive; #3 1.31 inactive
PARP8 (poly(ADP-ribose) polymerase family member 8): #1 -0.484 inactive; #2 -0.103 inactive; #3 -0.461 inactive
PCDHGB4 (protocadherin gamma subfamily B, 4): #1 1.01 inactive; #2 -0.855 inactive; #3 0.427 inactive

Entries above whose target name begins with M or m (6):
G2 robust z-score, by target gene and reagent
MCOLN3 (mucolipin TRP cation channel 3): #1 0.699 inactive; #2 2.34 inactive; #3 4.44 inactive
MCAM (melanoma cell adhesion molecule): #1 1.8 inactive; #2 -1.49 inactive; #3 0.189 inactive
